Source: the supplement of paper PMC3334620
In all, about 33,000 sequences were measured (“E-score (-0.5 to 0.5)”: median about -0.016, highest 2% from about 0.3 on). This is one part of the list.

biological target: T1, Yer184c (UniProt P39961); assay: PBM E-score (8-mer binding enrichment) (E-score (-0.5 to 0.5)); higher = stronger / more preferred TF binding; details: protein concentration: 100 nM; construct: GST-full length
T1 sequence: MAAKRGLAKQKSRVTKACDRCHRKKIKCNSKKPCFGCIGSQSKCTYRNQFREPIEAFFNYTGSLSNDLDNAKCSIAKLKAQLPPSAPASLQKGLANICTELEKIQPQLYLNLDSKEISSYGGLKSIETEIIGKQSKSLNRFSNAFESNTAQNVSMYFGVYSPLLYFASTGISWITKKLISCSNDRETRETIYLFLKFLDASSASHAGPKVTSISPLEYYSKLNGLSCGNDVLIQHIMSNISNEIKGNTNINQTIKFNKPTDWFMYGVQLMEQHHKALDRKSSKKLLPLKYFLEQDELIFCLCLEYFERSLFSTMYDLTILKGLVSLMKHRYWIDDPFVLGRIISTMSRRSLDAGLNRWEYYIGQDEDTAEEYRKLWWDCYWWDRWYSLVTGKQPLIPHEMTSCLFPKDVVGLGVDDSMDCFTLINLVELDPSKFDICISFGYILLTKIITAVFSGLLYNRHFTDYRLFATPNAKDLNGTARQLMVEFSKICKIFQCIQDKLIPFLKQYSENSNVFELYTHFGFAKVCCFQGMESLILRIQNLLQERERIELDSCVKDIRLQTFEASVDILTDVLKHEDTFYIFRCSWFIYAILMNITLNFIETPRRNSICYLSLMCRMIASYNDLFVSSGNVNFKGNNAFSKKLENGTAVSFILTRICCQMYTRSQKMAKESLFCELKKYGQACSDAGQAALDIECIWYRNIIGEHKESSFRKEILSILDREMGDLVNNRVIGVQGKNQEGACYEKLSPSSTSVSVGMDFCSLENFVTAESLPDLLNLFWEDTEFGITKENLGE
Procedure: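 Universal 'all 10-mer' protein binding microarrays (Agilent AMADID 015681) probed with GST-tagged S. cerevisiae TFs (full-length or DBD) made by in vitro transcription/translation (PURExpress), about 100-200 nM. Bound TF was detected with fluorescent anti-GST. Each ungapped 8-mer (which stands for itself and its reverse complement) is scored by the PBM enrichment score (E-score), a modified Wilcoxon-Mann-Whitney statistic from -0.5 to +0.5, computed with the Universal PBM Analysis Suite. Scale: above 0.35 generally sequence-specific binding.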

| Sequence | PBM E-score |
| --- | --- |
| ATACTATA | 0.125 |
| AAAATCGA | 0.0696 |
| GCGTCTGA | -0.0195 |
| ATGATGGG | -0.267 |
| AACCGTGT | 0.0684 |
| AGTGCCGG | 0.337 |
| GTTTGCCA | -0.0315 |
| AAACCCAT | 0.0274 |
| ACGAGACG | -0.123 |
| AGCTTGAT | -0.0956 |
| CACTAAGC | -0.132 |
| ATAGCAAG | -0.0366 |
| GCGTCAAC | -0.17 |
| GTTAGTCA | 0.00257 |
| CACGCAAG | 0.0177 |
| ACTGCACC | 0.0615 |
| CGGGGACA | -0.0645 |
| TAGTCAAA | 0.0998 |
| CATTGAGC | -0.0551 |
| ACGGTCCT | -0.193 |
| CGAAGAGC | 0.12 |
| CGATCTTA | -0.0292 |

| Sequence | PBM E-score |
| --- | --- |
| TTACGGAA | 0.355 |
| CTTAAGAC | 0.0397 |
| CCGCGTAA | 0.011 |
| ATGCGCTA | -0.125 |
| CCCACGTC | -0.117 |
| AATGAGGG | -0.254 |
| GACAAAGC | 0.138 |
| CTTGCACA | -0.0667 |
| CGCGGCAG | 0.167 |
| ACTGTTTC | -0.0863 |
| ACCTATCT | -0.205 |
| AGCCCGAC | -0.206 |
| GACCCCTA | -0.351 |
| GATCGAGC | 0.18 |
| CAGTTCCG | 0.199 |
| AAATTTGG | -0.0662 |
| ATAAGCGC | -0.137 |
| ATGAGTCC | -0.0586 |
| AGAGCCAT | -0.101 |
| GCCAGTCC | -0.134 |
| CTGCACTC | -0.0866 |
| AGACCCCG | 0.08 |

| Sequence | PBM E-score |
| --- | --- |
| AGCTGGTC | -0.113 |
| AACCTATA | 0.15 |
| CGTCTAAG | -0.0836 |
| ACTGTCCA | -0.0181 |
| CCAAGACG | -0.187 |
| CTTGTCGA | -0.0619 |
| AGCCTAAG | -0.178 |
| ACCTGGAT | -0.249 |
| TATCGATA | 0.0839 |
| GGAGTAGA | 0.00565 |
| ACGCGTAT | 0.0402 |
| ATCGACAG | -0.0255 |
| GTTGTCTA | 0.0693 |
| CACACAGA | 0.14 |
| CCTCGACC | -0.0725 |
| CTCAGCGA | 0.00511 |
| CCGGATGA | 0.335 |
| AAGCGTGA | -0.0764 |
| AGCAAGCC | -0.0802 |
| CAAACGAA | 0.0711 |
| ATGAGGTC | -0.107 |
| AGTGGTCA | -0.0391 |

Not a retest: entries from further up.

| Sequence | PBM E-score |
| --- | --- |
| GCGTCAAC | -0.17 |
| GTTAGTCA | 0.00257 |
| CACGCAAG | 0.0177 |
| ACTGCACC | 0.0615 |
| CGGGGACA | -0.0645 |

The results go on.

| Sequence | PBM E-score |
| --- | --- |
| CCACCCGG | 0.129 |
| AACAAACT | 0.277 |
| ACTCAAAG | -0.0425 |
| CGTCGAAC | -0.125 |
| AGACAAAC | 0.0187 |
| CTAGTGGC | -0.242 |
| AACAGGTA | -0.105 |
| AATAGGCC | -0.0377 |
| ACATGCAG | -0.0848 |
| CTACCGAG | 0.017 |
| CTTTAATA | 0.245 |
| GCACCTTA | 0.00446 |
| CAGGATTC | -0.107 |
| AGCGCAGG | -0.17 |
| CGCGAAGC | 0.091 |
| CGATCACG | 0.165 |
| CGGCCACG | -0.0401 |
| ACAGTCTC | -0.207 |
| CGGACTAC | 0.139 |
| CAGCAGGC | 0.117 |
